Data reported in paper PMC7192421.
These are yes or no findings as the source states them, for the method shown. In cells and extracts the contact can be indirect. Some entries that bind do so weakly or less than the wild type. Sequences can lack the tags named with a protein.

Protein sequences, listed by entry. Tags and fused reporters are not part of them.
UniProt P61586: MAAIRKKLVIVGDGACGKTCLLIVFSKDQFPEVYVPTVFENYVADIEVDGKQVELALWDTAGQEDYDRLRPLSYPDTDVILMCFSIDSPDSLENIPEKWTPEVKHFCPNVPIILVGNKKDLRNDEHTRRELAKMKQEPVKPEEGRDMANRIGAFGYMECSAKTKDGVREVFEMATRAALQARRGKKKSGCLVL

Target: GST-RhoA (UniProt P61586)
Assay: pull-down; GST-RhoA or GST as bait (seen by Coomassie staining); Myc-tagged Daam1 proteins made by in vitro transcription/translation, detected with anti-Myc antibody; done as in ref. 46; only the target purified

B1: Daam1 Δ (mouse Daam1 a.a. 1-148, Myc-tagged) (domain or fragment, UniProt Q8BPM0 1-148)
chain: MAPRKRGGRGISFIFCCFRNNDHPEITYRLRNDSNFALQTMEPALPMPPVEELDVMFSELVDELDLTDKHREAMFALPAEKKWQIYCSKKKDQEENKGATSWPEFYIDQLNSMAARKSLLALEKEEEEERSKTIESLKTALRTKPMRF
  binding: binds
